Test results taken from patent US20040223972A1 (FUNCTIONAL GENETICS, published 2004).
No constants are given. Whether binding was seen depends on the method and setting. Binding seen in cells or lysates may run through a third protein. Some binding calls cover weakened binding; strength is not graded here.

The chains behind the UniProt entries cited, without tags or fusion partners. Where a name states a change or a piece, a line headed by the entry shows the natural chain unless it says otherwise.
UniProt Q99816: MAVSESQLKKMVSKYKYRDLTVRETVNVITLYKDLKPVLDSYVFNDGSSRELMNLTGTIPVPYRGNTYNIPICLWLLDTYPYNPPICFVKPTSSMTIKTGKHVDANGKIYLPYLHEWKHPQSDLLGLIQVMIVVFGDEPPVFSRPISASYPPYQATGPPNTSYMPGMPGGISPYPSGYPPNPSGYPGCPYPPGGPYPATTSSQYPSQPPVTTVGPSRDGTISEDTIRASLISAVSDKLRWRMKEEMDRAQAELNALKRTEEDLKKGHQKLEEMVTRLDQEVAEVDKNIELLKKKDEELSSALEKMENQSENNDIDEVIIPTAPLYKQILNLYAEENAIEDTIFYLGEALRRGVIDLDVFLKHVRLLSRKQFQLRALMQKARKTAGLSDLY
UniProt Q05128: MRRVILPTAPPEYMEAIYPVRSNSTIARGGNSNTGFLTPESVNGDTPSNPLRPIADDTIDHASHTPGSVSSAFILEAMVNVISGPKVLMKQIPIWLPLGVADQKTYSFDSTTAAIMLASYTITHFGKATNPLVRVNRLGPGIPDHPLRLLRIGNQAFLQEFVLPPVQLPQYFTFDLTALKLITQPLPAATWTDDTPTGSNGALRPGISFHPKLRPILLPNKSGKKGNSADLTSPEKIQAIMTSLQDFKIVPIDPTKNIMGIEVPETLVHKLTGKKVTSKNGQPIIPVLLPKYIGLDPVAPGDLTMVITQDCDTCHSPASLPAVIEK

Biological target: Myc tagged TSG101 full length (FL) (Homo sapiens (Human)) (UniProt Q99816)
Test: co-immunoprecipitation with anti-Myc antibody from transfected 293T cells

Ebola VP40 (1-326) (from UniProt Q05128 1-326)
binding: binds
